Reference: the supplement of paper PMC7661543
Differences between knockout arms are mostly noise.

System: BT-20
Test: relative cell number vs DMSO control (72 h) (% of DMSO); higher = less growth inhibition (more cells)
Method: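 QMAP-Seq: a pool of 5 breast cancer cell lines (ZR-75-1, SKBR3, HCC-38, MDA-MB-231, BT-20), each carrying 12 doxycycline-inducible Cas9 sgRNA perturbations (11 knockouts plus non-targeting sgNT), was treated with compounds for 72 h at four 10-fold doses (10 nM-10 uM or 1 nM-1 uM range). Barcodes were amplified and sequenced, and cell number was interpolated from 293T spike-in standard curves. The result is expressed as % of the median of DMSO wells. Two biological replicates.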

Cn1c(CCCC(=O)O)nc2cc(N(CCCl)CCCl)ccc21 [Bendamustine]
Settings	relative cell number
sgRNA knockout: sgATF3, 10 nM	101
sgRNA knockout: sgATF3, 100 nM	99.8
sgRNA knockout: sgATF3, 1000 nM	99
sgRNA knockout: sgATF3, 10000 nM	108
sgRNA knockout: sgATF4, 10 nM	104.8
sgRNA knockout: sgATF4, 100 nM	109
sgRNA knockout: sgATF4, 1000 nM	107
sgRNA knockout: sgATF4, 10000 nM	127
sgRNA knockout: sgATF6, 10 nM	90.7
sgRNA knockout: sgATF6, 100 nM	98.7
sgRNA knockout: sgATF6, 1000 nM	94.2
sgRNA knockout: sgATF6, 10000 nM	103
sgRNA knockout: sgATG7, 10 nM	104
sgRNA knockout: sgATG7, 100 nM	112
sgRNA knockout: sgATG7, 1000 nM	122
sgRNA knockout: sgATG7, 10000 nM	123
sgRNA knockout: sgERN1, 10 nM	91.8
sgRNA knockout: sgERN1, 100 nM	106
sgRNA knockout: sgERN1, 1000 nM	92.2
sgRNA knockout: sgERN1, 10000 nM	113
sgRNA knockout: sgHSF1, 10 nM	86.1
sgRNA knockout: sgHSF1, 100 nM	89.8
sgRNA knockout: sgHSF1, 1000 nM	92.8
sgRNA knockout: sgHSF1, 10000 nM	96.3
sgRNA knockout: sgHSF2, 10 nM	106
sgRNA knockout: sgHSF2, 100 nM	106
sgRNA knockout: sgHSF2, 1000 nM	106.1
sgRNA knockout: sgHSF2, 10000 nM	113
sgRNA knockout: sgKEAP1, 10 nM	94.5
sgRNA knockout: sgKEAP1, 100 nM	90.3
sgRNA knockout: sgKEAP1, 1000 nM	101
sgRNA knockout: sgKEAP1, 10000 nM	97.43
sgRNA knockout: sgNFE2L2, 10 nM	107
sgRNA knockout: sgNFE2L2, 100 nM	131
sgRNA knockout: sgNFE2L2, 1000 nM	122
sgRNA knockout: sgNFE2L2, 10000 nM	154
sgRNA knockout: sgSLC35F2, 10 nM	90.9
sgRNA knockout: sgSLC35F2, 100 nM	115
sgRNA knockout: sgSLC35F2, 1000 nM	107
sgRNA knockout: sgSLC35F2, 10000 nM	111
sgRNA knockout: sgXBP1, 10 nM	107
sgRNA knockout: sgXBP1, 100 nM	121
sgRNA knockout: sgXBP1, 1000 nM	120
sgRNA knockout: sgXBP1, 10000 nM	116

C=C(C)[C@@H]1CC[C@]2(C(=O)O)CC[C@]3(C)[C@H](CC[C@@H]4[C@@]5(C)CC[C@H](O)C(C)(C)[C@@H]5CC[C@]43C)[C@@H]12 [BetulinicAcid]
Settings	relative cell number
sgRNA knockout: sgATF3, 10 nM	101
sgRNA knockout: sgATF3, 100 nM	87.2
sgRNA knockout: sgATF3, 1000 nM	86
sgRNA knockout: sgATF3, 10000 nM	97.97
sgRNA knockout: sgATF4, 10 nM	91.4
sgRNA knockout: sgATF4, 100 nM	83.2
sgRNA knockout: sgATF4, 1000 nM	87.3
sgRNA knockout: sgATF4, 10000 nM	105
sgRNA knockout: sgATF6, 10 nM	99.8
sgRNA knockout: sgATF6, 100 nM	91.8
sgRNA knockout: sgATF6, 1000 nM	90.6
sgRNA knockout: sgATF6, 10000 nM	94
sgRNA knockout: sgATG7, 10 nM	99.2
sgRNA knockout: sgATG7, 100 nM	83.9
sgRNA knockout: sgATG7, 1000 nM	93.4
sgRNA knockout: sgATG7, 10000 nM	107
sgRNA knockout: sgERN1, 10 nM	83.2
sgRNA knockout: sgERN1, 100 nM	92.5
sgRNA knockout: sgERN1, 1000 nM	95.5
sgRNA knockout: sgERN1, 10000 nM	96.2
sgRNA knockout: sgHSF1, 10 nM	99.8
sgRNA knockout: sgHSF1, 100 nM	79.4
sgRNA knockout: sgHSF1, 1000 nM	84.4
sgRNA knockout: sgHSF1, 10000 nM	95.7
sgRNA knockout: sgHSF2, 10 nM	86
sgRNA knockout: sgHSF2, 100 nM	89.67
sgRNA knockout: sgHSF2, 1000 nM	83.1
sgRNA knockout: sgHSF2, 10000 nM	94.6
sgRNA knockout: sgKEAP1, 10 nM	94
sgRNA knockout: sgKEAP1, 100 nM	86.9
sgRNA knockout: sgKEAP1, 1000 nM	98.1
sgRNA knockout: sgKEAP1, 10000 nM	97.7
sgRNA knockout: sgNFE2L2, 10 nM	98.2
sgRNA knockout: sgNFE2L2, 100 nM	106
sgRNA knockout: sgNFE2L2, 1000 nM	86.4
sgRNA knockout: sgNFE2L2, 10000 nM	95.46
sgRNA knockout: sgSLC35F2, 10 nM	94.1
sgRNA knockout: sgSLC35F2, 100 nM	90.8
sgRNA knockout: sgSLC35F2, 1000 nM	97.7
sgRNA knockout: sgSLC35F2, 10000 nM	93.4
sgRNA knockout: sgXBP1, 10 nM	94.2
sgRNA knockout: sgXBP1, 100 nM	92.2
sgRNA knockout: sgXBP1, 1000 nM	86.9
sgRNA knockout: sgXBP1, 10000 nM	100.5

C=C(c1ccc(C(=O)O)cc1)c1cc2c(cc1C)C(C)(C)CCC2(C)C [Bexarotene]
Settings	relative cell number
sgRNA knockout: sgATF3, 10 nM	91.2
sgRNA knockout: sgATF3, 100 nM	102
sgRNA knockout: sgATF3, 1000 nM	106.8
sgRNA knockout: sgATF3, 10000 nM	101.7
sgRNA knockout: sgATF4, 10 nM	119
sgRNA knockout: sgATF4, 100 nM	106
sgRNA knockout: sgATF4, 1000 nM	114
sgRNA knockout: sgATF4, 10000 nM	118
sgRNA knockout: sgATF6, 10 nM	85.7
sgRNA knockout: sgATF6, 100 nM	127.1
sgRNA knockout: sgATF6, 1000 nM	114
sgRNA knockout: sgATF6, 10000 nM	124
sgRNA knockout: sgATG7, 10 nM	95.1
sgRNA knockout: sgATG7, 100 nM	118
sgRNA knockout: sgATG7, 1000 nM	118
sgRNA knockout: sgATG7, 10000 nM	110
sgRNA knockout: sgERN1, 10 nM	102
sgRNA knockout: sgERN1, 100 nM	107
sgRNA knockout: sgERN1, 1000 nM	120
sgRNA knockout: sgERN1, 10000 nM	137
sgRNA knockout: sgHSF1, 10 nM	92.4
sgRNA knockout: sgHSF1, 100 nM	98.2
sgRNA knockout: sgHSF1, 1000 nM	120
sgRNA knockout: sgHSF1, 10000 nM	125
sgRNA knockout: sgHSF2, 10 nM	98.2
sgRNA knockout: sgHSF2, 100 nM	101
sgRNA knockout: sgHSF2, 1000 nM	110
sgRNA knockout: sgHSF2, 10000 nM	126
sgRNA knockout: sgKEAP1, 10 nM	103
sgRNA knockout: sgKEAP1, 100 nM	100.6
sgRNA knockout: sgKEAP1, 1000 nM	105
sgRNA knockout: sgKEAP1, 10000 nM	122
sgRNA knockout: sgNFE2L2, 10 nM	108
sgRNA knockout: sgNFE2L2, 100 nM	105
sgRNA knockout: sgNFE2L2, 1000 nM	93.8
sgRNA knockout: sgNFE2L2, 10000 nM	98.483
sgRNA knockout: sgSLC35F2, 10 nM	109
sgRNA knockout: sgSLC35F2, 100 nM	120
sgRNA knockout: sgSLC35F2, 1000 nM	106
sgRNA knockout: sgSLC35F2, 10000 nM	130
sgRNA knockout: sgXBP1, 10 nM	101
sgRNA knockout: sgXBP1, 100 nM	97.5
sgRNA knockout: sgXBP1, 1000 nM	103
sgRNA knockout: sgXBP1, 10000 nM	121
